Experimental data: PubChem BioAssay AID504774 (Drosophila RNAi Screening Center, 2011)
The deposit covers about 23,000 reagents; this is an unselected part of those with a known target gene and a result. 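Values are quantile-normalised luminescence on an arbitrary scale; higher means more cells surviving MMS.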 The numbers tell different reagents against one gene apart. A plus sign joins genes that one reagent is predicted to hit. Further read-outs or replicates are left out here.

- Purpose: 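Fly genes whose loss alters survival after alkylation damage to DNA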 (primary screen)
- Cells: Drosophila Kc167 cells
- Knock-down reagent: long dsRNA against Drosophila genes, about 0.25 µg dsRNA per well
- Time to read-out: about 6 days: 3 days knock-down, then 3 days with or without MMS
- Challenge: methyl methanesulphonate 0.004% (w/v) for 3 days after knock-down
- Read-out: 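Viability in wells given MMS, read as ATP luminescence, normalised by quantiles plate by plate and averaged across replicates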
- Direction: mean viability with MMS: higher = more surviving cells after MMS

mean viability with MMS, by gene and reagent
mthl15: #1 3.34e6
CG30121 (retired record): #1 3.63e6
CG9500: #1 3.47e6
odd: #1 2.69e6; #2 3.51e6
onecut: #1 3.67e6
Lmx1a: #1 3.52e6; #2 2.86e6
ttk: #1 3.50e6; #2 3.71e6
Spt: #1 3.53e6
Rab14: #1 3.47e6
stops: #1 3.50e6; #2 3.58e6; #3 3.54e6
CG10561: #1 3.58e6
mask: #1 3.28e6; #2 3.25e6; #3 3.18e6
CG12589: #1 3.20e6
Hsp27: #1 3.54e6
Cpr92A: #1 3.63e6
RpL36A: #1 3.24e6
Actbeta: #1 3.58e6; #2 3.58e6
CG6293: #1 3.72e6
CG3119: #1 3.34e6
Arglu1: #1 3.41e6
cN-IIIB: #1 3.59e6
CG9008: #1 3.58e6
CG33159: #1 1.73e6
CG32318 + Klp61F + Psf1: #1 2.80e6
BthD: #1 3.58e6
Mst57Dc: #1 3.44e6
CG15657: #1 3.56e6
14-3-3zeta: #1 3.53e6

4 of these entries in another layout.
stops #1 — mean viability with MMS: 3.50e6
stops #2 — mean viability with MMS: 3.58e6
stops #3 — mean viability with MMS: 3.54e6
CG10561 — mean viability with MMS: 3.58e6

Further results follow.
mean viability with MMS, by gene and reagent
Ccp84Ag: #1 3.62e6; #2 3.66e6
CG14160: #1 3.47e6
CG34273: #1 3.56e6
Ten-a: #1 3.58e6; #2 2.72e6; #3 3.47e6; #4 3.72e6; #5 3.51e6; #6 3.56e6; #7 3.60e6; #8 3.46e6; #9 3.44e6
Boh1: #1 3.61e6
CG11356: #1 3.51e6
His3:CG33818 + His3:CG33857 + His3:CG33806 + 20 more: #1 2.78e6
CkIIbeta: #1 3.54e6
CG33290: #1 3.54e6
Polr2H: #1 3.13e6
Nup44A: #1 3.39e6
Su(z)12: #1 3.45e6
DZIP1: #1 3.32e6
CG11597: #1 3.42e6
CG10338: #1 3.46e6
TkR86C: #1 3.56e6
yellow-g: #1 3.64e6
Ag5r: #1 3.84e6
CG13203: #1 3.50e6
Mocs2A + Mocs2B: #1 1.69e6; #2 3.72e6
CG15563: #1 3.42e6
Prp8: #1 3.13e6
